Test results reported in paper PMC8782181.

By UniProt entry, the sequences of proteins in these tests, tags left out.
UniProt P53297: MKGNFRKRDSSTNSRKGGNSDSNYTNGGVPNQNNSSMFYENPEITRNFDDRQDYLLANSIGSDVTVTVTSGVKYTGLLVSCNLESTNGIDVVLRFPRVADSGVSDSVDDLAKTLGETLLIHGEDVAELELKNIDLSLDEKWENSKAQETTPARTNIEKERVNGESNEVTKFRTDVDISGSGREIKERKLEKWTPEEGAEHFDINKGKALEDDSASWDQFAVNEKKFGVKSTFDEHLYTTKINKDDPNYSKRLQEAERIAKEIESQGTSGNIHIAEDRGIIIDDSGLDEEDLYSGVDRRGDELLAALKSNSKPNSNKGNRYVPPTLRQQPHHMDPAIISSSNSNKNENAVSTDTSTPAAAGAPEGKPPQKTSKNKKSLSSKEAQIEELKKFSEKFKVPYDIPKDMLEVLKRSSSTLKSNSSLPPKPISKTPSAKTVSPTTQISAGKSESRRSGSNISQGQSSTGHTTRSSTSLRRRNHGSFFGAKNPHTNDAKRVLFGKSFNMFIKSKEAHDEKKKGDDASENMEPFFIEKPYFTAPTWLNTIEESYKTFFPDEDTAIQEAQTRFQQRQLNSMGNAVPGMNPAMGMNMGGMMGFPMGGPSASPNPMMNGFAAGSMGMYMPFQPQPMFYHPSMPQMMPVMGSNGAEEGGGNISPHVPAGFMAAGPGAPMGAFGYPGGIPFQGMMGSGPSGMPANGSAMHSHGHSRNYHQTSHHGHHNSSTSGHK

How the values were obtained:
[1] = target: T1, Dcp1-myc (S. cerevisiae) (UniProt Q12517); assay: affinity purification with mass spectrometry; cells unstressed or glucose-depleted (10 min for Dcp1-myc, 60 min for Pbp1-myc), cross-linked with 0.8% formaldehyde; 20,000 g pellet of the lysate in Blob100 buffer (20 mM Tris-HCl pH 8, 100 mM NaCl, 1 mM MgCl2, 0.5% NP40) on anti-c-Myc magnetic beads, eluted with Myc peptide; label-free LC-MS/MS; hits are the proteins that cluster (Mfuzz) with the tagged bait across IP, pellet, supernatant, total and unbound fractions
T1 sequence: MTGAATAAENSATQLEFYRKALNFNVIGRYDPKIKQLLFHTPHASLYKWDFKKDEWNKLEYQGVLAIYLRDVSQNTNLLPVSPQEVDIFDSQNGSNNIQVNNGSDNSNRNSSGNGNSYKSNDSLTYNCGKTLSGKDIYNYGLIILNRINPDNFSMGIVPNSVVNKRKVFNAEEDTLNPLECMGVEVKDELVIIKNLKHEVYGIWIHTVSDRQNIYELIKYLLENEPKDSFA

[2] = target: Pbp1-myc (S. cerevisiae) (UniProt P53297); assay: as above

Binder | binding [1] | binding [2]
Lsm4 (protein, UniProt P40070 1-187) MLPLYLLTNAKGQQMQIELKNGEIIQGILTNVDNWMNLTLSNVTEYSEESAINSEDNAESSKAVKLNEIYIRGTFIKFIKLQDNIIDKVKQQINSNNNSNSNGPGHKRYYNNRDSNNNRGNYNRRNNNNGNSNRRPYSQNRQYNNSNSSNINNSINSINSNNQNMNNGLGGSVQHHFNSSSPQKVEF | binds | –
Mrh1 (protein, UniProt Q12117 1-320) MSTFETLIKRGGNEAIKINPPTGADFHITSRGSDWFWTCFCCYLLFGLILTFLMFRKPVNDRFFYLTGIAPNFFMCIAYFTMASNLGWIPVKAKYNHVQTSTQKEHPGYRQIFYSRFVGWFLALPWPIIQICMLAGTPFWQMAFNVCITEFFTVCWLIAACVHSTYKWGYYTIGLGAAIVVSISVMTTSYNLVKQRDNDIRLTFLVFFSIIMFLWIIAYPTCFGITDGGNVLQPDSAGIFYGIIDLILMCFIPTLLVPIANHFGADKLGYHFGPSDAEAVMAPKAPVASPRPAATPNLSKDKKKKSKKSKKSKKSKKSEE | binds | –
Dcp2 (protein, UniProt P53550 1-970) MSLPLRHALENVTSVDRILEDLLVRFIINCPNEDLSSVERELFHFEEASWFYTDFIKLMNPTLPSLKIKSFAQLIIKLCPLVWKWDIRVDEALQQFSKYKKSIPVRGAAIFNENLSKILLVQGTESDSWSFPRGKISKDENDIDCCIREVKEEIGFDLTDYIDDNQFIERNIQGKNYKIFLISGVSEVFNFKPQVRNEIDKIEWFDFKKISKTMYKSNIKYYLINSMMRPLSMWLRHQRQIKNEDQLKSYAEEQLKLLLGITKEEQIDPGRELLNMLHTAVQANSNNNAVSNGQVPSSQELQHLKEQSGEHNQQKDQQSSFSSQQQPSIFPSLSEPFANNKNVIPPTMPMANVFMSNPQLFATMNGQPFAPFPFMLPLTNNSNSANPIPTPVPPNFNAPPNPMAFGVPNMHNLSGPAVSQPFSLPPAPLPRDSGYSSSSPGQLLDILNSKKPDSNVQSSKKPKLKILQRGTDLNSIKQNNNDETAHSNSQALLDLLKKPTSSQKIHASKPDTSFLPNDSVSGIQDAEYEDFESSSDEEVETARDERNSLNVDIGVNVMPSEKDSRRSQKEKPRNDASKTNLNASAESNSVEWGPGKSSPSTQSKQNSSVGMQNKYRQEIHIGDSDAYEVFESSSDEEDGKKLEELEQTQDNSKLISQDILKENNFQDGEVPHRDMPTESNKSINETVGLSSTTNTVKKVPKVKILKRGETFASLANDKKAFDSSSNVSSSKDLLQMLRNPISSTVSSNQQSPKSQHLSGDEEIMMMLKRNSVSKPQNSEENASTSSINDANASELLGMLKQKEKDITAPKQPYNVDSYSQKNSAKGLLNILKKNDSTGYPRTEGGPSSEMSTSMKRNDATNNQELDKNSTELLNYLKPKPLNDGYENISNKDSSHELLNILHGNKNSSAFNNNVYATDGYSLASDNNENSSNKLLNMLQNRSSAINEPNFDVRSNGTSGSNELLSILHRK | – | binds
Ecm32 (protein, UniProt P32644 1-1121) MDFQCRTCSQAYDAEQMMKHLSSTRHKTVFDTSNDEDICCEECQDKNIHQLQIIRFGGEDMVLLCNSCFRKEYSETERPSTSYSLQNGSILKFWEKYVKVRECCCDECGEESNLNANRNGEVLCDKCLPKSNRAKDFVSEKSGRFLYIYLGLNETQNSTRKPRKKGGRRVGRGKKGRKGAKIKKEKKETFEAKISRIAYEVKKENSTIQSSSSSNLRNFKGFKAVESDPVVAAKVSKSETSRSNPGPSNRNKGKGNKANHKKNSGNGIGKEKERKTNIRNNVRNSQPIPEDRKNTNSHVTTNSGGKGKNESVDKHQLPQPKALNGNGSGSTNTTGLKKGKKDHAGQKTKGNDKTGNKNPREAKLNSAGRKNALGKKSNNQPNKGTSRWTIGSDTESSREPSISPNENTTSITKSRNRNKKASKPTLNEKSKTTTMPKKLETKNQEKNNGKTKDGKLIYEEGEPLTRYNTFKSTLSYPDLNTYLNDYSFALFLEQKLENEFVQNFNILWPRNEKDTAFIINVEKNNNSELEKLLPANLLALGRPAFNERQPFFFCTQDEQKVWYIFIKELSIQRGKYVLLVELFSWNNLSLPTKNGSSQFKLLPTSAQTSRILFAMTRITNPKFIDLLLGQKPIKEIYFDNRLKFSSDKLNRSQKTAVEHVLNNSITILQGPPGTGKTSTIEEIIIQVIERFHAFPILCVAASNIAIDNIAEKIMENRPQIKILRILSKKKEQQYSDDHPLGEICLHNIVYKNLSPDMQVVANKTRRGEMISKSEDTKFYKEKNRVTNKVVSQSQIIFTTNIAAGGRELKVIKECPVVIMDEATQSSEASTLVPLSLPGIRNFVFVGDEKQLSSFSNIPQLETSLFERVLSNGTYKNPLMLDTQYRMHPKISEFPIKKIYNGELKDGVTDEQKAWPGVQHPLFFYQCDLGPESRVRSTQRDIVGFTYENKHECVEIVKIIQILMLDKKVPLEEIGVITPYSAQRDLLSDILTKNVVINPKQISMQQEYDEIELFNAAGSQGTAGSLQNNVINIINGLHVATVDSFQGHEKSFIIFSCVRNNTENKIGFLRDKRRLNVALTRAKHGLIVVGNKNVLRKGDPLWKDYITYLEEQEVIFTDLTAY | – | binds
Ecm33 (protein, UniProt P38248 20-406) ANSTTSIPSSCSIGTSATATAQADLDKISGCSTIVGNLTITGDLGSAALASIQEIDGSLTIFNSSSLSSFSADSIKKITGDLNMQELIILTSASFGSLQEVDSINMVTLPAISTFSTDLQNANNIIVSDTTLESVEGFSTLKKVNVFNINNNRYLNSFQSSLESVSDSLQFSSNGDNTTLAFDNLVWANNITLRDVNSISFGSLQTVNASLGFINNTLPSLNLTQLSKVGQSLSIVSNDELSKAAFSNLTTVGGGFIIANNTQLKVIDGFNKVQTVGGAIEVTGNFSTLDLSSLKSVRGGANFDSSSSNFSCNALKKLQSNGAIQGDSFVCKNGATSTSVKLSSTSTESSKSSATSSASSSGDASNAQANVSASASSSSSSSKKSKG | – | binds
eIF4G2 (protein, UniProt P39936 1-914) MTDQRGPPPPHPQQANGYKKFPPHDNQYSGANNSQPNNHYNENLYSAREPHNNKQYQSKNGKYGTNKYNNRNNSQGNAQYYNNRFNNGYRLNNNDYNPAMLPGMQWPANYYAPQMYYIPQQMVPVASPPYTHQPLNTNPEPPSTPKTTKIEITTKTGERLNLKKFHEEKKASKGEEKNDGVEQKSKSGTPFEKEATPVLPANEAVKDTLTETSNEKSTSEAENTKRLFLEQVRLRKAAMERKKNGLISETEKKQETSNHDNTDTTKPNSVIESEPIKEAPKPTGEANEVVIDGKSGASVKTPQHVTGSVTKSVTFNEPENESSSQDVDELVKDDDTTEISDTTGGKTVNKSDDETINSVITTEENTVKETEPSTSDIEMPTVSQLLETLGKAQPISDIYEFAYPENVERPDIKYKKPSVKYTYGPTFLLQFKDKLKFRPDPAWVEAVSSKIVIPPHIARNKPKDSGRFGGDFRSPSMRGMDHTSSSRVSSKRRSKRMGDDRRSNRGYTSRKDREKAAEKAEEQAPKEEIAPLVPSANRWIPKSRVKKTEKKLAPDGKTELFDKEEVERKMKSLLNKLTLEMFDSISSEILDIANQSKWEDDGETLKIVIEQIFHKACDEPHWSSMYAQLCGKVVKDLDPNIKDKENEGKNGPKLVLHYLVARCHEEFEKGWADKLPAGEDGNPLEPEMMSDEYYIAAAAKRRGLGLVRFIGYLYCLNLLTGKMMFECFRRLMKDLNNDPSEETLESVIELLNTVGEQFEHDKFVTPQATLEGSVLLDNLFMLLQHIIDGGTISNRIKFKLIDVKELREIKHWNSAKKDAGPKTIQQIHQEEEQLRQKKNSQRSNSRFNNHNQSNSNRYSSNRRNMQNTQRDSFASTKTGSFRNNQRNARKVEEVSQAPRANMFDALMNNDGDSD | – | binds
Fun12 (protein, UniProt P39730 1-1002) MAKKSKKNQQNYWDEEFEEDAAQNEEISATPTPNPESSAGADDTSREASASAEGAEAIEGDFMSTLKQSKKKQEKKVIEEKKDGKPILKSKKEKEKEKKEKEKQKKKEQAARKKAQQQAQKEKNKELNKQNVEKAAAEKAAAEKSQKSKGESDKPSASAKKPAKKVPAGLAALRRQLELKKQLEEQEKLEREEEERLEKEEEERLANEEKMKEEAKAAKKEKEKAKREKRKAEGKLLTRKQKEEKKLLERRRAALLSSGNVKVAGLAKKDGEENKPKKVVYSKKKKRTTQENASEAIKSDSKKDSEVVPDDELKESEDVLIDDWENLALGDDDEEGTNEETQESTASHENEDQNQGEEEEEGEEEEEEEEERAHVHEVAKSTPAATPAATPTPSSASPNKKDLRSPICCILGHVDTGKTKLLDKIRQTNVQGGEAGGITQQIGATYFPIDAIKAKTKVMAEYEKQTFDVPGLLVIDTPGHESFSNLRSRGSSLCNIAILVIDIMHGLEQQTIESIKLLRDRKAPFVVALNKIDRLYDWKAIPNNSFRDSFAKQSRAVQEEFQSRYSKIQLELAEQGLNSELYFQNKNMSKYVSIVPTSAVTGEGVPDLLWLLLELTQKRMSKQLMYLSHVEATILEVKVVEGFGTTIDVILSNGYLREGDRIVLCGMNGPIVTNIRALLTPQPLRELRLKSEYVHHKEVKAALGVKIAANDLEKAVSGSRLLVVGPEDDEDELMDDVMDDLTGLLDSVDTTGKGVVVQASTLGSLEALLDFLKDMKIPVMSIGLGPVYKRDVMKASTMLEKAPEYAVMLCFDVKVDKEAEQYAEQEGIKIFNADVIYHLFDSFTAYQEKLLEERRKDFLDYAIFPCVLQTLQIINKRGPMIIGVDVLEGTLRVGTPICAVKTDPTTKERQTLILGKVISLEINHQPVQEVKKGQTAAGVAVRLEDPSGQQPIWGRHVDENDTLYSLVSRRSIDTLKDKAFRDQVARSDWLLLKKLKVVFGIE | – | binds
Gas1 (protein, UniProt P22146 23-528) DDVPAIEVVGNKFFYSNNGSQFYIRGVAYQADTANETSGSTVNDPLANYESCSRDIPYLKKLNTNVIRVYAINTTLDHSECMKALNDADIYVIADLAAPATSINRDDPTWTVDLFNSYKTVVDTFANYTNVLGFFAGNEVTNNYTNTDASAFVKAAIRDVRQYISDKNYRKIPVGYSSNDDEDTRVKMTDYFACGDDDVKADFYGINMYEWCGKSDFKTSGYADRTAEFKNLSIPVFFSEYGCNEVTPRLFTEVEALYGSNMTDVWSGGIVYMYFEETNKYGLVSIDGNDVKTLDDFNNYSSEINKISPTSANTKSYSATTSDVACPATGKYWSAATELPPTPNGGLCSCMNAANSCVVSDDVDSDDYETLFNWICNEVDCSGISANGTAGKYGAYSFCTPKEQLSFVMNLYYEKSGGSKSDCSFSGSATLQTATTQASCSSALKEIGSMGTNSASGSVDLGSGTESSTASSNASGSSSKSNSGSSGSSSSSSSSSASSSSSSKKN | – | binds

These are yes or no findings as the source states them, for the method shown. In cells and extracts the contact can be indirect. A yes stands for co-enrichment or nearness to the bait. Other partners may have been found. For some assays here: Sequences can lack the tags named with a protein.
